According to patent US20230295066A1, “Process for the Efficient Preparation of (Bio)-Alkanediols” (Symrise AG, priority 2020, published 2023):

Assay: Sensory properties of lipid/alkanediol blends assessed by untrained panellists
Type: in vivo
[1] = CCT (neutral oil), difference w and w/o
[2] = Cacao butter, difference w and w/o
[3] = Grapeseed Oil, difference w and w/o
[4] = Octocrylene, difference w and w/o
[5] = Olive Oil, difference w and w/o
[6] = Argan Oil, difference w and w/o
[7] = Argan Oil, difference with (w) and without (w/o) alkanediol
[8] = Avocado Oil, difference w and w/o
[9] = Helianthus Annuus (Sunflower) Seed Oil, difference w and w/o

| SMILES | Absorption, Δ [1] | Fatty/greasy Skin Feel, Δ [1] | Spreading, Δ [1] | Absorption, Δ [2] | Fatty/greasy Skin Feel, Δ [2] | Spreading, Δ [2] | Absorption, Δ [3] | Fatty/greasy Skin Feel, Δ [3] | Spreading, Δ [3] | Absorption, Δ [4] | Fatty/greasy Skin Feel, Δ [4] | Spreading, Δ [4] | Absorption, Δ [5] | Fatty/greasy Skin Feel, Δ [5] | Spreading, Δ [5] | Absorption, Δ [6] | Fatty/greasy Skin Feel, Δ [6] | Spreading, Δ [7] | Absorption, Δ [8] | Fatty/greasy Skin Feel, Δ [8] | other results |
| --- | --- | --- | --- | --- | --- | --- | --- | --- | --- | --- | --- | --- | --- | --- | --- | --- | --- | --- | --- | --- | --- |
| CCCCC(O)CO (stereo not drawn) [1,2-C6, 1,2-hexanediol] | 1.8 | 1.4 | 1.8 | – | – | – | – | – | – | – | – | – | – | – | – | – | – | – | – | – | – |
| CCCCCC(O)CO (stereo not drawn) [1,2-C7, 1,2-heptanediol] | 0.6 | 0.3 | 1.5 | 0 | 1.2 | 2 | 0.2 | 2 | 1.8 | 0.5 | 0.5 | 2.5 | 1.6 | 1.8 | 1.8 | – | – | – | – | – | – |
| CCCCCCC(O)CO (stereo not drawn) [1,2-C8, 1,2-octanediol] | – | – | – | – | – | – | 1 | 1.4 | 2 | 0.5 | 0.5 | 2.5 | 1.4 | 1.2 | 2 | 1.2 | 1.4 | 1.8 | 1.2 | 0.8 | Spreading, Δ [8]: 2; Absorption, Δ [9]: 1.3; Fatty/greasy Skin Feel, Δ [9]: 1.8; Spreading, Δ [9]: 3 |
| CCCC(O)C(C)O (stereo not drawn) [2,3-C6, 2,3-hexanediol] | 1.8 | 1.4 | 1.4 | – | – | – | – | – | – | – | – | – | – | – | – | – | – | – | – | – | – |
| CCCCC(O)C(C)O (stereo not drawn) [2,3-C7, 2,3-heptanediol] | 0.3 | −0.2 | 1.7 | 0.4 | 0.8 | 1.2 | 0.8 | 1.6 | 1.6 | 0.5 | 1.0 | 2.5 | 2 | 1.6 | 1.8 | – | – | – | – | – | – |
| CCCCCC(O)C(C)O (stereo not drawn) [2,3-C8, 2,3-octanediol] | – | – | – | – | – | – | 0.2 | 1.4 | 0.8 | 1.5 | 1.0 | 2.5 | 1.4 | 1.4 | 0.8 | 1.6 | 1.6 | 1.4 | 1.4 | 1 | Spreading, Δ [8]: 1.2; Absorption, Δ [9]: −0.1; Fatty/greasy Skin Feel, Δ [9]: 0.8; Spreading, Δ [9]: 2.2 |

No dose or concentration is given here for some results.
